From ChEMBL document CHEMBL3988442, “University of Dundee, Small-Polar-MMV Screening Library” (2021).

A: 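Growth of Mycobacterium tuberculosis over 3 days (7H9 medium with glucose and tyloxapol); the read-out is not stated. Concentration: 500 µM. Direction is inferred from retests: higher values go with more growth inhibition. Size under these conditions: about 18,000 compounds, about 1,400 of them at 50% or above in at least one test.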
B: 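Growth of Mycobacterium tuberculosis over 4 days (cholesterol / DPPC medium with tyloxapol); the read-out is not stated. Compounds at 500 µM. Direction is inferred from retests: higher values go with more growth inhibition. About 18,000 compounds were tested under these conditions; 5% (about 900) showed 50% or more at least once.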

Values are the deposited “Percent Effect”, in %.
The record does not define 0% and 100%; most values in the screen are far below 50% and negative numbers occur (in some assays of this library far below -100).
The compounds are a random part of those screened.

| # | structure | A | B |
|---|---|---|---|
| 1 | `CCOC(=O)c1csc(NC(=O)c2cnccn2)n1` | -8.767 | -12.78 |
| 2 | `COc1c(C)cnc(CSCCN2CCOCC2)c1C` | 21.66 | -0.7613 |
| 3 | `Cc1cc(=O)n(C)cc1NC(=O)c1ccncc1Cl` | -4.199 | 4.211 |
| 4 | `CN1CCCCCC1C(=O)NCCc1ccncc1` (stereo unspecified) | 7.898 | 11.98 |
| 5 | `CC(C)(C)OC(=O)[C@H]1CCCN1CCO` | 4.401 | 11.1 |
| 6 | `Cc1ncccc1CN1CC(C)OCC1(C)C` (stereo unspecified) | 2.17 | -1.491 |
| 7 | `CN(Cc1ccoc1)C(=O)CN(C)C1CCNCC1` | -2.748 | -3.416 |
| 8 | `O=C1CC(Nc2nc(C3CC3)ns2)CN1C1CC1` (stereo unspecified) | 16.3 | -3.24 |
| 9 | `O=C(Cc1ccc(-n2cnnn2)cc1)N1CCCCO1` | 8.146 | 3.743 |
| 10 | `CN(C(=O)c1cccnc1O)C1CCS(=O)(=O)C1` (stereo unspecified) | 1.189 | 4.843 |
| 11 | `O=C1NCCCc2ccccc21` | 10.89 | 2.2 |
| 12 | `CCOCCC(=O)N1C[C@@H](N)C[C@H]1C(=O)N(CC)CC` | 3.707 | -15.15 |
| 13 | `CC1CN(C)CCN1CC(=O)Nc1ccc(Br)cn1` (stereo unspecified) | 26.7 | 14.05 |
| 14 | `Cc1nc[nH]c1CN1CCCC(N2CCCC2=O)C1` (stereo unspecified) | -1.213 | -5.461 |
| 15 | `COc1cccc(CS(=O)(=O)Nc2ccc(C)nc2)c1` | 57.43 | 48.92 |
| 16 | `OCCN1CCN(c2ncnc3cccc(F)c23)CC1` | -1.935 | -13.35 |
| 17 | `NS(=O)(=O)N1CCN(Cc2cccc3nonc23)CC1` | 4.054 | 5.611 |
| 18 | `CC(C)(C)Oc1ccncc1N` | 4.343 | -11.92 |
| 19 | `CC(C)C1CN(C(=O)CCc2ccccn2)CCS1` (stereo unspecified) | 75.83 | 79.32 |
| 20 | `CN(C)C(=O)C1CCCN1C(=O)CC1CCCC1` (stereo unspecified) | 7.251 | 1.34 |
| 21 | `CC(=O)NC(C(=O)N(C)Cc1cccs1)C(C)C` (stereo unspecified) | 14.96 | 9.553 |
| 22 | `CC1(C)Cc2cc(CN)ccc2O1` | -0.2265 | 6.99 |
| 23 | `CC(NC(=O)Cc1cccnc1)c1nnc(N)s1` (stereo unspecified) | 11.06 | 1.933 |
| 24 | `CN(C)c1ncccc1CNC(=O)c1ccoc1` | 11.25 | 14.41 |
| 25 | `COc1ncccc1NC(=O)C1CNC(=O)N1` (stereo unspecified) | -30.38 | -39.77 |
| 26 | `CC(C)[C@H](N)C(=O)N1CCN(Cc2cccnc2)CC1` | -2.928 | -10.28 |
| 27 | `O=C(CC1CCc2ccccc21)NCc1ccncc1` (stereo unspecified) | 42.83 | 2 |
| 28 | `O=C(Nc1ccnc(CO)c1)c1ccc(F)cc1I` | 87.35 | 87.16 |
| 29 | `CC(=O)c1ccc(S(=O)(=O)NCCN(C)C)cc1` | 7.873 | 27.48 |
| 30 | `CC(=O)N1c2ccccc2N(C)CCC1C` (stereo unspecified) | 2.465 | -12.25 |
| 31 | `c1cnc(NCc2ccc(N3CCOCC3)nc2)nc1` | -14.39 | -14.78 |
| 32 | `CC(C)(CNC(N)=O)N1CCc2ccccc2C1` | 17.53 | -0.477 |
| 33 | `CCOCCNCCOCc1ccccc1` | -1.892 | 6.252 |
| 34 | `O=C1CC(C(=O)Nc2cccnc2)c2ccccc2N1` (stereo unspecified) | 8.08 | 1.522 |
| 35 | `Cc1cccn2cc(CNc3ccc(C#N)nc3)nc12` | -2.407 | 0.1471 |
| 36 | `CC(C)n1cc(Br)cc1C(=O)NCCCO` | -10.56 | -7.951 |
| 37 | `NCc1cccc(N2CCCC2=O)c1` | 6.644 | 14.06 |
| 38 | `CCN1CCN(C(=O)c2cccc(C)c2O)CC1` | 14.19 | 7.734 |
| 39 | `Cc1nnnn1-c1cccc(O)c1` | 5.053 | 18.71 |
| 40 | `CC(=O)N1CCN(CCNC(=O)c2cc(Br)c[nH]2)CC1` | 4.299 | -2.095 |
| 41 | `CC(=O)NCCNC(=O)c1cc(-c2ccco2)on1` | -2.142 | -5.536 |
| 42 | `CC(NC(=O)c1sccc1C1CC1)C(N)=O` (stereo unspecified) | 12.98 | 10.19 |

Once more, the final 5:

CCN1CCN(C(=O)c2cccc(C)c2O)CC1 gave A: 14.19%; B: 7.734%.
Cc1nnnn1-c1cccc(O)c1 gave A: 5.053%; B: 18.71%.
CC(=O)N1CCN(CCNC(=O)c2cc(Br)c[nH]2)CC1 gave A: 4.299%; B: -2.095%.
CC(=O)NCCNC(=O)c1cc(-c2ccco2)on1 gave A: -2.142%; B: -5.536%.
CC(NC(=O)c1sccc1C1CC1)C(N)=O (stereo unspecified) gave A: 12.98%; B: 10.19%.